Source: PMC9808002
No constants are given. Whether binding was seen depends on the method and setting. Binding seen in cells or lysates may run through a third protein. Some binding calls cover weakened binding; strength is not graded here.

Chains of the proteins cited; added tags and fusions are not shown. Residues count along the entry.
UniProt P09055, residues 21-798: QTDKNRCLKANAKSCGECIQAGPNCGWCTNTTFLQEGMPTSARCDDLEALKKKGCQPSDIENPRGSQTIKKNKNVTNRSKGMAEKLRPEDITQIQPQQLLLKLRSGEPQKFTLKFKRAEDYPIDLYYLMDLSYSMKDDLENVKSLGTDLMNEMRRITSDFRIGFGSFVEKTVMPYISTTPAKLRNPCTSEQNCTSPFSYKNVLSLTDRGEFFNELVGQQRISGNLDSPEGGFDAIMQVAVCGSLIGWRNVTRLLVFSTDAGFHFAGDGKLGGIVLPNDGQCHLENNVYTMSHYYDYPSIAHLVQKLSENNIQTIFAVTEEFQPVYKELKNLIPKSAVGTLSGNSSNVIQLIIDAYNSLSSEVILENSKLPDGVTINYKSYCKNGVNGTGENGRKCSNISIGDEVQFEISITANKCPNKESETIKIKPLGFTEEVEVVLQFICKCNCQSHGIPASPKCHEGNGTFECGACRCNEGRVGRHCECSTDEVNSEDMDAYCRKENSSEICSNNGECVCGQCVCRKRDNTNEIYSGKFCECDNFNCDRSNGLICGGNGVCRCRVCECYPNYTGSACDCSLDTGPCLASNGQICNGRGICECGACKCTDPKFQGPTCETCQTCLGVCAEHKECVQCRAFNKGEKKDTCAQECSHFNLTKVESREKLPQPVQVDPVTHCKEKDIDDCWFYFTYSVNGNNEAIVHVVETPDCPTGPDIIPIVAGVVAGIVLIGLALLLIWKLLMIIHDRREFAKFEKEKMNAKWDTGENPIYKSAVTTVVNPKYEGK

How the values were obtained:
[1] = target: E3 ubiquitin ligase c-Cbl (endogenous in Raw264.7 macrophages) (mouse (endogenous in Raw264.7)) (UniProt P22682); test: co-IP; Raw264.7 cells, endogenous proteins, with or without FFA (1 mM, 24 h), MG132 (10 μM) added 16 h before collecting; RIPA lysate, IP (c-Cbl or integrin α4) at 4 °C overnight, protein A/G-Sepharose, washed with NETN buffer (20 mM Tris pH 8.0, 100 mM NaCl, 1 mM EDTA, 0.5% NP-40); immunoblot for integrin β1
[2] = target: T1, integrin α4 (endogenous in Raw264.7 macrophages) (mouse (endogenous in Raw264.7)) (UniProt Q00651); test: as above
T1 sequence: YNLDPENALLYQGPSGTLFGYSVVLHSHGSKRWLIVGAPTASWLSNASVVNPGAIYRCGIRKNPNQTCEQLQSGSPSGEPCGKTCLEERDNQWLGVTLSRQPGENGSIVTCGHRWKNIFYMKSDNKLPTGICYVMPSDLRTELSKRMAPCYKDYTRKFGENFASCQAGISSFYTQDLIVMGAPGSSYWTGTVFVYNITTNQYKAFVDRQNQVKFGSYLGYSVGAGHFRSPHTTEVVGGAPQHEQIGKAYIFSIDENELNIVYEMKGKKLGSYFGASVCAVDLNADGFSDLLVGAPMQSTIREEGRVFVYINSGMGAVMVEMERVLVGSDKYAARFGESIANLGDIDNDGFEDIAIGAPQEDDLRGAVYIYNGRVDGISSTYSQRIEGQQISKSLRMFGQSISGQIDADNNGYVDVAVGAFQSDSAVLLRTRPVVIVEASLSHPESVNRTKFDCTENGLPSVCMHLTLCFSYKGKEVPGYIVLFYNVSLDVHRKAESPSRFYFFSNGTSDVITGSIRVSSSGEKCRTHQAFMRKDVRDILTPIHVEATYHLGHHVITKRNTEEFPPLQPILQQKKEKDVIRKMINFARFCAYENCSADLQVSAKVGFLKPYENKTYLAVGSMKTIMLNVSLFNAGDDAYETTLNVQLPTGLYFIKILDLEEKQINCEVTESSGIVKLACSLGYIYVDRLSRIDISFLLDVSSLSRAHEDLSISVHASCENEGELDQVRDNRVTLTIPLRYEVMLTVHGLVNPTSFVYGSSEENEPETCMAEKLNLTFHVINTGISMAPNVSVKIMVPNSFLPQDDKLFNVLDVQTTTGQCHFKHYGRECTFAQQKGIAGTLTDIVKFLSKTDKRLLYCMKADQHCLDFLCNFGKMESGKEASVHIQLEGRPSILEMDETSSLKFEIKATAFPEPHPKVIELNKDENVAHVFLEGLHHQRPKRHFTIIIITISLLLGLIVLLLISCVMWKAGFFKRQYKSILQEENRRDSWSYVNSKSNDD

With “integrin β1 (endogenous in Raw264.7 macrophages) (from UniProt P09055 21-798) (receptor)” the binding [1] was “binds” and the binding [2] was “binds”.
